Results taken from PMC7026642, “Secondary nucleotide messenger c-di-GMP exerts a global control on natural product biosynthesis in streptomycetes” (Nucleic Acids Research, 2020).
Where a protein sequence is shown, tags need not be part of it.

How the values were obtained:
[1] = test system: T1, BldDgh (Streptomyces ghanaensis); assay: EMSA; conditions: 10 mM Tris pH 7.5, 1 mM EDTA, 5% glycerol, 10 mM NaCl, 1 mM MgCl2, 1 ug poly(dI-dC), 1 uM c-di-GMP, 20 fmol probe in 15 ul, 37 C, 25 min, recombinant protein, label: 5'-33P, probe letters rebuilt from the primers and the genome
T1 sequence (looked up): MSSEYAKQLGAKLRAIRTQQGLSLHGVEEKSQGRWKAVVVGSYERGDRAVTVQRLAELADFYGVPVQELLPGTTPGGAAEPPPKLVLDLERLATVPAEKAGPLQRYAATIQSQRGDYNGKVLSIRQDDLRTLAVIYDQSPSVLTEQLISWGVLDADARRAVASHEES

[2] = test system: T1, BldDgh (Streptomyces ghanaensis); assay: competition with a labelled probe; conditions: unlabeled wblAghp 10-200x competes, 0.75 uM BldDgh, 1.5 uM c-di-GMP; 10 mM Tris pH 7.5, 1 mM EDTA, 5% glycerol, 10 mM NaCl, 1 mM MgCl2, 1 ug poly(dI-dC), 1 uM c-di-GMP, 20 fmol probe in 15 ul, 37 C, 25 min; recombinant protein; residues 1-167; protein details: N-terminal His6 (pET28a); label: 5'-33P; probe letters rebuilt from the primers and the genome

Row | Sequence | binding result ([1]; 0.75 uM BldDgh, c-di-GMP titration 0.5-3 uM, binding significantly improved by c-di-GMP, residues 1-167, protein details: N-terminal His6 (pET28a)) | binding result ([1]; one complex, residues 1-167, protein details: N-terminal His6 (pET28a)) | binding result [2] | binding result ([1]; residues 1-167, protein details: N-terminal His6 (pET28a))
1 | GGGCCACGTATCAATACGTCCGGCGACCCCGAATCGTTCCGGGCCCTCTCGACTTTCTCGACCTGGGTGGGTGGGTCCGTGTCCGGATCCGCCTCGTGTGTCACGTGGTGCCCGTTGTGACGCAACGGAACTGACCTGGAATGCCGGGATTGTCGCGCATGTCGTCACCTCACTCCCCCGGGTGATCTGCCGCTTACCCATAGTCCGTTCGGACCATTCAAGATTGGGCCCGCTGGGGGTGTTGCGCTGTGTCCACCTTCCGTAACGTCCTCAACTGGCGGCGGTGAATATGCCGCTGCCGCCGTGGGGGAGCCTCGATTCGGGAGAGGACGGCGCCGGTATGGGCTGGGTTACCGACTGGAGTGCGCAGGCTGCCTGCCGCACTACCGATCCGGATGAA (double strand) [wblAgh promoter (wblAghp)] | binds | binds | binds | –
2 | CGAGACCTCGGAGTGAATCAAGGGTTGTCTTCGGCGCCTTTCCCGATGGTGCCCCGGCAGCTTCCCGCCACTGAATCACAGCGCGCTGCTCACTCGGTACACAGGGTCAACAATTCCCGCCCCTTGTGACTCAAGTCACAGCCAAACGTGAACAATTACGCGGCCTTTCCAGAGTTTTCCGTGCATACGCCGAACGCGTCCTTCACGGCGGTTGCGCACGGTTCGCGCACGGGTCGGCCGCTGGTCCTAGGTCCTCGCTCGGGCCGGGGCCCGATGCGGCGGGTGTGAAGCGGAGATTAGCGTTTCCGGTGTGCCGAACACTCCAGCCACCCCCTCCGCGATCACCTCCGTGCCCGCCGCCCGGCATGCTGAGGGGGTGAGCAACGACGAGTTCCGCGCCGCCATGTCCCGGCTGGCCTCCGGTGTGGTCCTGGTGACCGCGCAGGAGCCGCCGCTGGACCCGGACGACCCCCGGGCGCCGGCCGGCGAGGACGCCGGCATGACGGCGACCGCGTTCCTGTCGGTCTCCCTGGA (double strand) [cdgBgh promoter (cdgBghp)] | – | – | – | binds
